Data source: PubChem BioAssay AID686937 (Drosophila RNAi Screening Center, 2013)

Screen: 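Genes whose loss weakens secretory pathway function in fly cells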 (primary screen)
System: Drosophila S2 cells expressing secreted horseradish peroxidase
Knock-down reagent: long dsRNA against Drosophila genes
Time to read-out: about 5.5 days (5 days dsRNA, then 12 h reporter induction)
Challenge: reporter expression induced after 5 days of dsRNA, read 12 h later; inducer not stated
Measured: 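Chemiluminescent measurement of peroxidase in the medium 12 h after reporter induction, following 5 days of dsRNA, given as a z-score per plate; higher means more secretion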
Direction: z-score: higher = more reporter secreted into medium
The deposit covers about 23,000 reagents; this is an unselected part of those with a known target gene and a result. 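Reduced-secretion tags in replicate 1 do not always agree with the z-scores; no criterion for assigning the tags was given.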 The numbers tell different reagents against one gene apart. Names joined by + are all predicted targets of the reagent. Not all columns of the deposit are shown. No sequences are given here. Not stated in the record: the amount of reagent.

The opening 6 entries, to show the layout:
CG13390 — z-score, replicate 1: 0.38
CG34204 — z-score, replicate 1: 0.36
CG13675 #1 — z-score, replicate 1: -2.45; phenotype, replicate 1: reduced secretion
CG13675 #2 — z-score, replicate 1: -2.35; phenotype, replicate 1: reduced secretion
CG7329 — z-score, replicate 1: -0.1
CG8534 — z-score, replicate 1: 0.24

Results, repeating the preview:
CG13390 — z-score, replicate 1: 0.38
CG34204 — z-score, replicate 1: 0.36
CG13675 #1 — z-score, replicate 1: -2.45; phenotype, replicate 1: reduced secretion
CG13675 #2 — z-score, replicate 1: -2.35; phenotype, replicate 1: reduced secretion
CG7329 — z-score, replicate 1: -0.1
CG8534 — z-score, replicate 1: 0.24
Obp46a — z-score, replicate 1: 0.42
CG11619 — z-score, replicate 1: 0.52
CG14763 — z-score, replicate 1: 0.25
CG12301 — z-score, replicate 1: 0.22
bab2 #1 — z-score, replicate 1: 0.01
bab2 #2 — z-score, replicate 1: 0.64
nito — z-score, replicate 1: 0.56
CG15093 — z-score, replicate 1: 0.21
bi — z-score, replicate 1: 0.38
Hcf — z-score, replicate 1: 0.55
TwdlG — z-score, replicate 1: 0.26
CG7196 (retired record) #1 — z-score, replicate 1: 0.17
CG7196 (retired record) #2 — z-score, replicate 1: 0.36
CG15431 — z-score, replicate 1: -0.53
Nup62 — z-score, replicate 1: -1.02
Idh3a — z-score, replicate 1: 0.22
Tfb1 — z-score, replicate 1: -1.74; phenotype, replicate 1: reduced secretion
tacc #1 — z-score, replicate 1: 0.58
tacc #2 — z-score, replicate 1: 0.14
Jheh3 — z-score, replicate 1: 0.73
CG9861 — z-score, replicate 1: 0.3
CG30371 — z-score, replicate 1: 0.45
dtr — z-score, replicate 1: 0.3
ETH + asRNA:CR43257 — z-score, replicate 1: 0.19
Gyc89Db — z-score, replicate 1: 0.07
CG32820 + CG17450 + CG32819 #1 — z-score, replicate 1: -0.92
CG32820 + CG17450 + CG32819 #2 — z-score, replicate 1: 0.46
CG11052 — z-score, replicate 1: 0.2
CG13690 — z-score, replicate 1: 0.46
f-cup — z-score, replicate 1: -0.15
SkpE — z-score, replicate 1: 0.73
S-Lap7 — z-score, replicate 1: 0.23
sbm — z-score, replicate 1: 0.52
Drs — z-score, replicate 1: 0.39
Cyp6t2Psi — z-score, replicate 1: 0.32
Pc — z-score, replicate 1: 0.56
MFS18 — z-score, replicate 1: 0.25
lin-28 — z-score, replicate 1: -0.01
mwh #1 — z-score, replicate 1: 0.47
mwh #2 — z-score, replicate 1: 0.58
CG17544 — z-score, replicate 1: 0.42
CG8993 — z-score, replicate 1: 0.31
FucTB — z-score, replicate 1: 0.26
CG7963 — z-score, replicate 1: 0.09
drl — z-score, replicate 1: 0.44
